Measured values from article doi:10.1101/2021.03.18.436074.
Read-outs that look alike come from different tables or passages of the source. Results are given in words; binding and its absence hold for the method and conditions named. Binding seen in cells or lysates may run through a third protein. Some results given as binding are weak or reduced against the parent protein; the word gives no strength.

T1: CLAMP (Chromatin linked adapter for MSL proteins) (Drosophila melanogaster (endogenous in S2 and Kc cells)) (UniProt Q9V9N4)
T1 sequence: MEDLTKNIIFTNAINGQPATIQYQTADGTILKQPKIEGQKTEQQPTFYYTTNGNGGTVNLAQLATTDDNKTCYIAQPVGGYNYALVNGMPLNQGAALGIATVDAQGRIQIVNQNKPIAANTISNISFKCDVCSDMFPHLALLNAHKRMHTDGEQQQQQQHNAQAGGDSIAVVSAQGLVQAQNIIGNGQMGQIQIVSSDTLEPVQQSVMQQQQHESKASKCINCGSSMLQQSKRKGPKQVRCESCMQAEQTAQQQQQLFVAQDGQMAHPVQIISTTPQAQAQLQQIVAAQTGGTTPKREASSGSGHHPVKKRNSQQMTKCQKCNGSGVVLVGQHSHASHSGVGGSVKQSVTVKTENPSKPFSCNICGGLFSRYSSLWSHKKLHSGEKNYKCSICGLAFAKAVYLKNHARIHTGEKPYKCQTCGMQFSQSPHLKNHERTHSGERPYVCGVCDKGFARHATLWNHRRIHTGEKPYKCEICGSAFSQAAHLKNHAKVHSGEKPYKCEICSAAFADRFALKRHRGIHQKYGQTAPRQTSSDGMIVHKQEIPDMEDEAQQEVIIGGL


Legend:
[1] = target: T1, CLAMP (Chromatin linked adapter for MSL proteins) (Drosophila melanogaster (endogenous in S2 and Kc cells)); experiment: co-IP
[2] = target: T1, CLAMP (Chromatin linked adapter for MSL proteins) (Drosophila melanogaster (endogenous in S2 and Kc cells)); experiment: co-IP; remark: listed apart in the source

Row | binding [1] | binding [2] | Binder
1 | binds | – | Squid (protein, UniProt Q08473 1-344) MAENKQVDTEINGEDFTKDVTADGPGSENGDAGAAGSTNGSSDNQSAASGQRDDDRKLFVGGLSWETTEKELRDHFGKYGEIESINVKTDPQTGRSRGFAFIVFTNTEAIDKVSAADEHIINSKKVDPKKAKARHGKIFVGGLTTEISDEEIKTYFGQFGNIVEVEMPFDKQKSQRKGFCFITFDSEQVVTDLLKTPKQKIAGKEVDVKRATPKPENQMMGGMRGGPRGGMRGGRGGYGGRGGYNNQWDGQGSYGGYGGGYGGYGAGGYGDYYAGGYYNGYDYGYDGYGYGGGFEGNGYGGGGGGNMGGGRGGPRGGGGPKGGGGFNGGKQRGGGGRQQRHQPY
2 | binds | binds | Hrb27C (protein, UniProt P48809 1-421) MEEDERGKLFVGGLSWETTQENLSRYFCRFGDIIDCVVMKNNESGRSRGFGFVTFADPTNVNHVLQNGPHTLDGRTIDPKPCNPRTLQKPKKGGGYKVFLGGLPSNVTETDLRTFFNRYGKVTEVVIMYDQEKKKSRGFGFLSFEEESSVEHVTNERYINLNGKQVEIKKAEPRDGSGGQNSNNSTVGGAYGKLGNECSHWGPHHAPINMMQGQNGQMGGPPLNMPIGAPNMMPGYQGWGTSPQQQQYGYGNSGPGSYQGWGAPPGPQGPPPQWSNYAGPQQTQGYGGYDMYNSTSTGAPSGPSGGGSWNSWNMPPNSAGPTGAPGAGAGTATDMYSRAQAWATGGPSTTGPVGGMPRTGPGNSASKSGSEYDYGGYGSGYDYDYSNYVKQEGASNYGAGPRSAYGNDSSTQPPYATSQAV
